Test results from patent US20090098596A1, “PHOTOSTABLE FRET-COMPETENT BIARSENICAL-TETRACYSTEINE PROBES BASED ON FLUORINATED FLUORESCEINS” (priority 2006, published 2009).

System: streptavidin
Test: FRET titration of streptavidin-bound F2FlAsH-P12-biotin with F4FlAsH-P12-biotin
Settings: donor F2FlAsH-biotin-P12 on streptavidin, acceptor F4FlAsH peptide, at saturation of free sites

`O=C1OC2(c3ccccc31)c1cc(F)c(O)c([As]3SCCS3)c1Oc1c2cc(F)c(O)c1[As]1SCCS1` [F2FlAsH, 4′,5′-Bis(1,2,3-dithioarsolan-2-yl)-2′,7′-difluorofluorescein] showed an FRET efficiency of 0.34.
